Source: patent US20210363259A1 (Biogen, published 2021)
No constants are given. Whether binding was seen depends on the method and setting. Some results given as binding are weak or reduced against the parent protein; the word gives no strength.

By UniProt entry, the sequences of proteins in these tests, tags left out. Where a name states a change or a piece, a line headed by the entry shows the natural chain unless it says otherwise.
UniProt P06756: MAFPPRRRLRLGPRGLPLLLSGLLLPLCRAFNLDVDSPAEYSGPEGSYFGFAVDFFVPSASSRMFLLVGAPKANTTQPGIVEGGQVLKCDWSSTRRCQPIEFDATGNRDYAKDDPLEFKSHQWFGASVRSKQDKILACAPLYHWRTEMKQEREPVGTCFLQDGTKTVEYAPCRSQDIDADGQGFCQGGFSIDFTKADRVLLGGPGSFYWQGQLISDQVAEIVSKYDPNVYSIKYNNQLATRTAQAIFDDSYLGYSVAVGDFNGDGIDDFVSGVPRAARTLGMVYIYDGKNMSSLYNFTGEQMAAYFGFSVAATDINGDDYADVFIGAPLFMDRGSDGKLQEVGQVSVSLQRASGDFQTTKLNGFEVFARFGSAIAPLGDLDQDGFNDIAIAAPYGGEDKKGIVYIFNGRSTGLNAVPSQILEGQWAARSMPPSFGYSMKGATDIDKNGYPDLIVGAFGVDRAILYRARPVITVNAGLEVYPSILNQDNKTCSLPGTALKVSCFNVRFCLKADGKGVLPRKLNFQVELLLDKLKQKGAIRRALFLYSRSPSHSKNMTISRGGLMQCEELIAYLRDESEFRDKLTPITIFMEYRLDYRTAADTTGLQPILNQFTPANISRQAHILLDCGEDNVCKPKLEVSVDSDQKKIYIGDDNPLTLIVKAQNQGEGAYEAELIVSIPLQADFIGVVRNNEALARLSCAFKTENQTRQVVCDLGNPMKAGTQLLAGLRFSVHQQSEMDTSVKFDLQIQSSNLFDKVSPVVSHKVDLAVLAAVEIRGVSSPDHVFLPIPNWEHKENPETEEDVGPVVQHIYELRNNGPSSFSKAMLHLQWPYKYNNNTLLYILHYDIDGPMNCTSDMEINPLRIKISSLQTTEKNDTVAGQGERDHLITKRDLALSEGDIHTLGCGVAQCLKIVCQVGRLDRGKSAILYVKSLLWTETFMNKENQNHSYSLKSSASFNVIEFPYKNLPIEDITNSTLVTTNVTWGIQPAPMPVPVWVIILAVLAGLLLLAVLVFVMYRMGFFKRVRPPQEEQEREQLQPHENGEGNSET

Target: T1, integrin αvβ6 (human, UniProt P06756 31-1048; P18564 22-788)
T1 construct: also called the antigen
Test: structure-activity relationship studies on forced-oxidized STX-100

B1: STX-100 (antibody, human IgG1, kappa, V domains shown)
VH: EVQLVESGGGLVQPGGSLRLSCAASGFTFSRYVMSWVRQAPGKGLEWVASISSGGRMYYPDTVKGRFTISRDNAKNSLYLQMNSLRAEDTAVYYCARGSIYDGYYVFPYWGQGTLVTVSS
VL: EIVLTQSPATLSLSPGERATLSCSASSSVSSSYLYWYQQKPGQAPRLLIYSTSNLASGIPARFSGSGSGTDFTLTISSLEPEDFAVYYCHQWSTYPPTFGGGTKVEIKR
notes: Humanized human IgG1/human kappa monoclonal antibody; It was tested as drug product in citrate/arginine/methionine/PS80 formulations; also called BG00011; BG11
For B1, the binding was “binds”.
